These results are taken from publication PMC4991497.

In the assay the target is T1, Flag-DNM2 (UniProt P50570).
T1 sequence: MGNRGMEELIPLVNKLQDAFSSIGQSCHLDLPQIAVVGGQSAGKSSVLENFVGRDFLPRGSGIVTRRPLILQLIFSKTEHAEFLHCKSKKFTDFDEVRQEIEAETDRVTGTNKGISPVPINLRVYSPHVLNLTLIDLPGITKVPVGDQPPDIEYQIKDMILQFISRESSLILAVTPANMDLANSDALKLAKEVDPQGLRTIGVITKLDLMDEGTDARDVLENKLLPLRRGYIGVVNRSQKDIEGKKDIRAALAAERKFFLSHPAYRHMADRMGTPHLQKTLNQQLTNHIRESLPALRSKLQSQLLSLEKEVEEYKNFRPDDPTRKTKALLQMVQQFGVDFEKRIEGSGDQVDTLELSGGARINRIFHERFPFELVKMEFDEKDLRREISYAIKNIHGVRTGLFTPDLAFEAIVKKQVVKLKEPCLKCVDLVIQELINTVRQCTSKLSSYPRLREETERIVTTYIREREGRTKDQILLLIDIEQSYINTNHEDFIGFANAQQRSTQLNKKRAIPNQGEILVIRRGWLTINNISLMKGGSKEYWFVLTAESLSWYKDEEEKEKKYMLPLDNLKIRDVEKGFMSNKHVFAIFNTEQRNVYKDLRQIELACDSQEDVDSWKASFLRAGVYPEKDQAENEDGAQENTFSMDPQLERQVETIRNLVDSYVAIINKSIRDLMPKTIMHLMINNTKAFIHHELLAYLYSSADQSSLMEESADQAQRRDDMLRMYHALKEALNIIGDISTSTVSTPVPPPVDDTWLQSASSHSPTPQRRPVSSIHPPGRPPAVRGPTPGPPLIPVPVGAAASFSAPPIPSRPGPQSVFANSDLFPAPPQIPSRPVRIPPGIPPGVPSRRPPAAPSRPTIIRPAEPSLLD
Put plainly: co-IP; 293T cells co-transfected with Flag-DNM2 and Bif-1 or its deletion mutants; 1% Triton X-100 lysis buffer (30 mM Tris-HCl pH 7.5, 150 mM NaCl, 10% glycerol); immunoprecipitation with anti-Flag antibody; immunoblot. A general note: A western blot detects proteins with antibodies after separation by electrophoresis.

No constants are given. Whether binding was seen depends on the method and setting. In cells and extracts the contact can be indirect. Some results given as binding are weak or reduced against the parent protein; the word gives no strength. Where a sequence is shown, tags or fusion partners need not be part of it.

B1: Bif-1-SH3-Myc (domain or fragment, UniProt Q9Y371 305-365)
chain: SGSRKARVLYDYDAANSTELSLLADEVITVFSVVGMDSDWLMGERGNQKGKVPITYLELLN
Turning to B1, the binding result is on record as “binds”.

B2: Bif-1 (protein, UniProt Q9Y371 1-365)
chain: MNIMDFNVKKLAADAGTFLSRAVQFTEEKLGQAEKTELDAHLENLLSKAECTKIWTEKIMKQTEVLLQPNPNARIEEFVYEKLDRKAPSRINNPELLGQYMIDAGTEFGPGTAYGNALIKCGETQKRIGTADRELIQTSALNFLTPLRNFIEGDYKTIAKERKLLQNKRLDLDAAKTRLKKAKAAETRNSSEQELRITQSEFDRQAEITRLLLEGISSTHAHHLRCLNDFVEAQMTYYAQCYQYMLDLQKQLGSFPSNYLSNNNQTSVTPVPSVLPNAIGSSAMASTSGLVITSPSNLSDLKECSGSRKARVLYDYDAANSTELSLLADEVITVFSVVGMDSDWLMGERGNQKGKVPITYLELLN
In the case of B2, the binding result is listed as “binds”.
